The supplement of paper PMC11006884
This is a selection; strong and weak results do not stand in their true shares.

compound: COC(=O)C#Cc1ccccc1 [methyl 3-phenylpropiolate]; test: log2 ratio of iodoacetamide-alkyne labeling of the cysteine site, DMSO over compound (competition); higher = stronger covalent engagement of the cysteine by the compound, active = 1 or more; details: 500 µM; treatment time 1 h; system: HEK293T cell lysate
Outline: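 Three replicates, each with duplicate channels, were prepared from HEK293T lysate (2 mg/mL) treated with vehicle or electrophile at 500 µM for 1 h at ambient temperature. Iodoacetamide alkyne was then applied for 1 h, and samples were clicked to sCIP-TMT reagents, pooled, trypsin-digested overnight at 37 °C, enriched on streptavidin, acid-eluted and analysed on Orbitrap Eclipse LC-MS/MS with FAIMS, with FragPipe quantification. The log2 competition ratio per cysteine is the mean control-channel divided by the mean compound-channel reporter intensity. Cysteines quantified in only one replicate were left out.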

Target | log2 ratio of iodoacetamide-alkyne labeling
FHL3 C150 (UniProt Q13643) | inactive: 0.146
USP10 C209 (UniProt Q14694) | inactive: -0.157
DGKZ C540 (UniProt Q13574) | inactive: -0.0853
UniProt Q13885_C354 | inactive: 0.511
SMC1A C1115 (UniProt Q14683) | inactive: 0.186
GAPVD1 C374 (UniProt Q14C86) | inactive: 0.197
CKAP5 C592 (UniProt Q14008) | inactive: 0.385
ESPL1 C294 (UniProt Q14674) | inactive: 0.577
UniProt Q14141_C432 | inactive: 0.169
FHL1 C132 (UniProt Q13642) | inactive: -0.164
CASP8 C360 (UniProt Q14790) | active: 1.2
CBX2 C222 (UniProt Q14781) | inactive: 0.267
NUMA1 C1729 (UniProt Q14980) | inactive: 0.16
SQSTM1 C331 (UniProt Q13501) | inactive: 0.0188
FHL1 C191 (UniProt Q13642) | inactive: -0.117
TUBB3 C124 (UniProt Q13509) | inactive: 0.685
DSG2 C871 (UniProt Q14126) | inactive: 0.132
MORC3 C619 (UniProt Q14149) | inactive: 0.279
FLNC C1735 (UniProt Q14315) | inactive: 0.192

Quoted from the listing.
SMC1A C1115 (UniProt Q14683) – log2 ratio of iodoacetamide-alkyne labeling: inactive: 0.186
CBX2 C222 (UniProt Q14781) – log2 ratio of iodoacetamide-alkyne labeling: inactive: 0.267

Further records follow.

Target | log2 ratio of iodoacetamide-alkyne labeling
CHD4 C1121 (UniProt Q14839) | inactive: 0.176
RRP1B C583 (UniProt Q14684) | inactive: 0.481
POLA2 C198 (UniProt Q14181) | inactive: 0.169
UBXN2B C41 (UniProt Q14CS0) | inactive: 0.407
RRP1B C286 (UniProt Q14684) | inactive: 0.229
POLA2 C590 (UniProt Q14181) | inactive: 0.158
SNW1 C250 (UniProt Q13573) | inactive: 0.496
CUL3 C187 (UniProt Q13618) | inactive: 0.0832
FHL1 C31 (UniProt Q13642) | inactive: 0.286
CUL2 C721 (UniProt Q13617) | inactive: 0.301
UniProt Q13885_C211 | inactive: 0.278
SART3 C670 (UniProt Q15020) | inactive: 0.486
CAMK2G C7 (UniProt Q13555) | inactive: 0.45
FLNC C1109 (UniProt Q14315) | inactive: 0.096
CHD4 C1594 (UniProt Q14839) | inactive: 0.364
SPTAN1 C1930 (UniProt Q13813) | inactive: 0.167
TRA2A C120 (UniProt Q13595) | inactive: -0.000214
DCTN1 C1252 (UniProt Q14203) | inactive: 0.704
